# From US20230174649A1, “PHARMACEUTICAL COMPOSITIONS CONTAINING ANTI-CD47 ANTIBODIES” (I-MAB BIOPHARMA US LIMITED, priority 2020, published 2023)
# For at least one compound, name, drawing or mass did not settle the structure.
# Tested on: Toledo Cells
# Test: FACS-based phagocytosis assay, macrophages cocultured with Toledo cells
# Assay type: cell-based, Human
# Procedure: FACS-based phagocytosis assays were performed to evaluate the phagocytic abilities of macrophages.
# Toledo Cells (a tumor cell line, as a target) were labelled with CellTrace™ Far Red and plated into 96-well plate at a density of 0.15×10^6 cells/well for 12 hours. The Macrophages were prepared as discussed above and then labelled with CellTrace Violet. Next, the macrophages were added into the plate as an effector at an effector:target (Toledo) ratio of 1:3, giving a final density of macrophages at 0.05×10^6 cells/well. Macrophages and tumor cells were cocultured for 2-6 h at 37° C. in the presence of the indicated treatments (small molecule therapeutic agents, CD47 antibody, CD20 antibody or combinations). The incubation time depending on the phagocytosis rate, expecting phagocytosis of 5-20% cells.
# Then, cells were acquired and data were analyzed.
smiles,measurement,setting,value
CC1(C)CCC(CN2CCN(c3ccc(C(=O)NS(=O)(=O)c4ccc(NCC5CCOCC5)c([N+](=O)[O-])c4)c(Oc4cnc5[nH]ccc5c4)c3)CC2)=C(c2ccc(Cl)cc2)C1 [Venetoclax],phagocytic ability of macrophages,agent itself or antibody combination,can also enhance the phagocytic ability of macrophages
same,phagocytic ability of macrophages,"triple combination: T4J, Rituximab and the small molecule",enhances the phagocytic ability of macrophages much higher
